Reference: PubChem BioAssay AID1224828 (NIAID, 2016)
The deposit covers about 17,000 reagents; below is a random part of them. 762 of all reagents (4.5%) were called active. 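Active calls include both raised and lowered p65 entry, mostly lowered; wells with fewer than 50 cells lack a z-score.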 Raw values are not corrected between plates. Unmarked entries are inactive. The numbers tell different reagents against one gene apart. No sequences are given here.

- Aim: 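Knock-downs that increase or decrease LPS-induced p65 nuclear translocation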 (primary screen)
- System: mouse RAW264.7 G9 macrophage reporter cells (GFP-p65, Tnf promoter-mCherry)
- Reagent: siRNA pool against mouse genes, 100 nM
- Duration: 2 days siRNA transfection, then 40 min LPS before fixation
- Treatment: LPS (Salmonella minnesota R595) at 10 ng/ml
- Read-out: 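Microscopy ratio of nuclear to perinuclear-ring GFP-p65 signal, scaled to the plate median; gene score is the average of two replicate robust z-scores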
- Scale: p65 translocation robust z-score: higher = more nuclear NF-kappaB p65 after LPS than the plate median; nuclear/cytoplasmic p65 ratio: higher = more nuclear NF-kappaB p65
- Rule for the call: 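Active if robust z is above 3.3 (negative regulators) or below -1.56, the Tlr4 control median (positive regulators); activity score 50 or more; control wells not called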
- Meaning of the calls: active = hit (p65 shift raised or lowered); inactive = no clear change

| Target gene | reagent no. | p65 translocation robust z-score | nuclear/cytoplasmic p65 ratio, rep 1 | nuclear/cytoplasmic p65 ratio, rep 2 | low cell count flag |
| --- | --- | --- | --- | --- | --- |
| AI606181 | 1 | 2.24 | 1.93 | 2.05 | enough cells to score |
| Map3k6 | 1 | 0.23 | 1.89 | 1.4 | enough cells to score |
| Sema5a | 1 | 1.46 | 1.59 | 1.42 | enough cells to score |
| Pcdhb21 | 1 | – | 2.01 | 1.35 | fewer than 50 cells per well; well left out of scoring |
| Cdc6 | 1 | 0.51 | 1.57 | 1.41 | enough cells to score |
| Alpk3 | 1 | -0.36 | 1.54 | 1.41 | enough cells to score |
| Ddo | 1 | 1.42 | 1.51 | 1.69 | enough cells to score |
| Myh14 | 1 | – | 1.18 | 1.01 | fewer than 50 cells per well; well left out of scoring |
| Or5w20 | 1 | -2.39 (active) | 1.35 | 1.17 | enough cells to score |

Continued, starting with the last 2 of the part before.
| Target gene | reagent no. | p65 translocation robust z-score | nuclear/cytoplasmic p65 ratio, rep 1 | nuclear/cytoplasmic p65 ratio, rep 2 | low cell count flag |
| --- | --- | --- | --- | --- | --- |
| Myh14 | 1 | – | 1.18 | 1.01 | fewer than 50 cells per well; well left out of scoring |
| Or5w20 | 1 | -2.39 (active) | 1.35 | 1.17 | enough cells to score |
| Vmn1r69 | 1 | – | 1.23 | 1.1 | fewer than 50 cells per well; well left out of scoring |
| Mtap | 1 | 0.41 | 1.47 | 1.42 | enough cells to score |
| Tbata | 1 | -1.72 (active) | 1.29 | 1.2 | enough cells to score |
| Rhpn2 | 1 | -0.52 | 1.29 | 1.21 | enough cells to score |
| Poglut2 | 1 | 1.34 | 1.71 | 1.64 | enough cells to score |
| Sh2d2a | 1 | -1.85 (active) | 1.3 | 1.28 | enough cells to score |
| Nfic | 1 | 0.68 | 1.68 | 1.5 | enough cells to score |
| Nfic | 2 | 0.64 | 1.55 | 1.48 | enough cells to score |
| Skp2 | 1 | -1.68 (active) | 1.35 | 1.33 | enough cells to score |
| Mstn | 1 | -1.36 | 1.22 | 1.22 | enough cells to score |
| Galc | 1 | 2.34 | 1.81 | 1.61 | enough cells to score |
| Vti1b | 1 | -0.76 | 1.31 | 1.13 | enough cells to score |
| Hcfc1 | 1 | 0.18 | 1.49 | 1.37 | enough cells to score |
| Ms4a3 | 1 | -0.22 | 1.85 | 1.47 | enough cells to score |
| Lyar | 1 | -1.86 (active) | 1.54 | 1.18 | enough cells to score |
